Consider 2 molecules from article PMC9525121.

Protein sequences, listed by entry. Tags and fused reporters are not part of them. Residues count along the entry.
UniProt P08069, residues 31-1367: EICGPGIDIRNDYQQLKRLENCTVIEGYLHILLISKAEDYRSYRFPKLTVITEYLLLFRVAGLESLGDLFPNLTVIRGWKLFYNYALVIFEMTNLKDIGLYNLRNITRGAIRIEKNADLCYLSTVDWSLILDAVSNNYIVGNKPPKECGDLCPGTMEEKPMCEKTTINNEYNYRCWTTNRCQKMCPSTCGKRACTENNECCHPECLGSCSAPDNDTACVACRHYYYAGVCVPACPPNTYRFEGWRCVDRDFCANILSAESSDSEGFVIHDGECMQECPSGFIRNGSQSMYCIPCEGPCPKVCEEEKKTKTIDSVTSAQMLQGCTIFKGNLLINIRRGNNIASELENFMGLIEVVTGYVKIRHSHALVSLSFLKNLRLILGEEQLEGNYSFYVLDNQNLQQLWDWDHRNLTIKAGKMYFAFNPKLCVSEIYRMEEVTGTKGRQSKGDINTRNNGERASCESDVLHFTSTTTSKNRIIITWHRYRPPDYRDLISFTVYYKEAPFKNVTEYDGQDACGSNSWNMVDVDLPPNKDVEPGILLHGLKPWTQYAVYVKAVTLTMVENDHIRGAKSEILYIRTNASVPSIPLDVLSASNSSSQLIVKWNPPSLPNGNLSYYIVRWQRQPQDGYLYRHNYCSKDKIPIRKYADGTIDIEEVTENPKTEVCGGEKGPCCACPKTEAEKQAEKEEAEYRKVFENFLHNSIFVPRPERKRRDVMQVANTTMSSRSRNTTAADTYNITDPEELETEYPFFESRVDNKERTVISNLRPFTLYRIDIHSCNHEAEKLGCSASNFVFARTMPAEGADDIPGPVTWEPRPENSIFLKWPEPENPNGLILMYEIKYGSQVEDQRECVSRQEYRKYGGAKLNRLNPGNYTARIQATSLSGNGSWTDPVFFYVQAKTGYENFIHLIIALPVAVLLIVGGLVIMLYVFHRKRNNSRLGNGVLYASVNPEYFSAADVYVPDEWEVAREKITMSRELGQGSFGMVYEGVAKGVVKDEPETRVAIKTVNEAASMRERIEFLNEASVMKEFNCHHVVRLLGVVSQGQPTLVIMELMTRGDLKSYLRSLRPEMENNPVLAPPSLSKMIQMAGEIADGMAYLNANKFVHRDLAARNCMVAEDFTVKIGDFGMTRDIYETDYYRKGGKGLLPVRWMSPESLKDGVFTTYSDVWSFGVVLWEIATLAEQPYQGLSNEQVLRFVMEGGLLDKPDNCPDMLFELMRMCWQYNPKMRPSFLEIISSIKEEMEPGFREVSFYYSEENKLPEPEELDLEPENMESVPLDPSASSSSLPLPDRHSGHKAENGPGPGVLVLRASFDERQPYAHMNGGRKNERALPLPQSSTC

Results are given in words; binding and its absence hold for the method and conditions named. In cells and extracts the contact can be indirect. Some results given as binding are weak or reduced against the parent protein; the word gives no strength. Tags and fused reporters may be left off the sequences shown.

Assay [1] concerns the target T1, HA-tagged GIGYF1 (full-length) (UniProt O75420).
T1 sequence: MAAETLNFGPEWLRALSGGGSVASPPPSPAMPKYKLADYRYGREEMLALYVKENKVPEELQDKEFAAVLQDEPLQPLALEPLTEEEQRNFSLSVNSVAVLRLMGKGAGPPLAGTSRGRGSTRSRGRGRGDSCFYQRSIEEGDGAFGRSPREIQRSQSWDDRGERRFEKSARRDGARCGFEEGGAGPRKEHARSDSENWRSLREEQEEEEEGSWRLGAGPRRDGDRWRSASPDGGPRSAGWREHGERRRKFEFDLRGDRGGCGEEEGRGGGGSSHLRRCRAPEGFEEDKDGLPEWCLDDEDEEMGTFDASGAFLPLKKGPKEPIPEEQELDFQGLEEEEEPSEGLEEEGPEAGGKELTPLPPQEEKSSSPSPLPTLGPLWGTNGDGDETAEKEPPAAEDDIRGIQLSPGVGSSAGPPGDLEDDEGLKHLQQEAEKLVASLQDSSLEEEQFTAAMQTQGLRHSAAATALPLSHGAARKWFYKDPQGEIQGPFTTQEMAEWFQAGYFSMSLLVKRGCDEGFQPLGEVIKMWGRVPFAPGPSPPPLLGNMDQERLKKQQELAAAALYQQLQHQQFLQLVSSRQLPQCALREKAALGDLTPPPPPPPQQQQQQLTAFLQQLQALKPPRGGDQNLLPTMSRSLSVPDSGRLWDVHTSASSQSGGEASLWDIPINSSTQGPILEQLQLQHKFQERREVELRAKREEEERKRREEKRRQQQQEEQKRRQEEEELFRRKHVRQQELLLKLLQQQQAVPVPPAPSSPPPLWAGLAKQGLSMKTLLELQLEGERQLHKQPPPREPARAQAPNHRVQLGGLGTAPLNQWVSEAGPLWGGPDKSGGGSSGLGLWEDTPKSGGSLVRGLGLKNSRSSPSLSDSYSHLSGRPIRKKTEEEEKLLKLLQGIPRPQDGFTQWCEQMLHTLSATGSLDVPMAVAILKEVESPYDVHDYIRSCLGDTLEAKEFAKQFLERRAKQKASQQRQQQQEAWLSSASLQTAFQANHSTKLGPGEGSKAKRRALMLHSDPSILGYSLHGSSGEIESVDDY
The assay can be described thus: co-IP; HEK293T cells cotransfected with HA-GIGYF1 and 3xFlag-IGF-1R, lysed after 24 hours in NP40 lysis buffer; supernatants incubated with anti-HA or anti-Flag immunomagnetic beads overnight at 4°C, washed with PBST 3 times, detected by Western blotting. For orientation: In western blotting, separated proteins are transferred to a membrane and probed.

In assay [2] the target is Flag-tagged IGF-1R (UniProt P08069). The description is as above.

Turning to “Flag-tagged IGF-1R (from UniProt P08069 31-1367) (receptor)”, the binding result in assay [1] was “binds”.

B1: HA-tagged GIGYF1 (full-length) (protein, UniProt O75420 1-1035)
chain: MAAETLNFGPEWLRALSGGGSVASPPPSPAMPKYKLADYRYGREEMLALYVKENKVPEELQDKEFAAVLQDEPLQPLALEPLTEEEQRNFSLSVNSVAVLRLMGKGAGPPLAGTSRGRGSTRSRGRGRGDSCFYQRSIEEGDGAFGRSPREIQRSQSWDDRGERRFEKSARRDGARCGFEEGGAGPRKEHARSDSENWRSLREEQEEEEEGSWRLGAGPRRDGDRWRSASPDGGPRSAGWREHGERRRKFEFDLRGDRGGCGEEEGRGGGGSSHLRRCRAPEGFEEDKDGLPEWCLDDEDEEMGTFDASGAFLPLKKGPKEPIPEEQELDFQGLEEEEEPSEGLEEEGPEAGGKELTPLPPQEEKSSSPSPLPTLGPLWGTNGDGDETAEKEPPAAEDDIRGIQLSPGVGSSAGPPGDLEDDEGLKHLQQEAEKLVASLQDSSLEEEQFTAAMQTQGLRHSAAATALPLSHGAARKWFYKDPQGEIQGPFTTQEMAEWFQAGYFSMSLLVKRGCDEGFQPLGEVIKMWGRVPFAPGPSPPPLLGNMDQERLKKQQELAAAALYQQLQHQQFLQLVSSRQLPQCALREKAALGDLTPPPPPPPQQQQQQLTAFLQQLQALKPPRGGDQNLLPTMSRSLSVPDSGRLWDVHTSASSQSGGEASLWDIPINSSTQGPILEQLQLQHKFQERREVELRAKREEEERKRREEKRRQQQQEEQKRRQEEEELFRRKHVRQQELLLKLLQQQQAVPVPPAPSSPPPLWAGLAKQGLSMKTLLELQLEGERQLHKQPPPREPARAQAPNHRVQLGGLGTAPLNQWVSEAGPLWGGPDKSGGGSSGLGLWEDTPKSGGSLVRGLGLKNSRSSPSLSDSYSHLSGRPIRKKTEEEEKLLKLLQGIPRPQDGFTQWCEQMLHTLSATGSLDVPMAVAILKEVESPYDVHDYIRSCLGDTLEAKEFAKQFLERRAKQKASQQRQQQQEAWLSSASLQTAFQANHSTKLGPGEGSKAKRRALMLHSDPSILGYSLHGSSGEIESVDDY
In the case of B1, in assay [2], the binding entry is on record as “binds”.
